The values that follow come from paper PMC7554666.

Amino acid sequences for entries named in this document (tags omitted).
UniProt P0CY33: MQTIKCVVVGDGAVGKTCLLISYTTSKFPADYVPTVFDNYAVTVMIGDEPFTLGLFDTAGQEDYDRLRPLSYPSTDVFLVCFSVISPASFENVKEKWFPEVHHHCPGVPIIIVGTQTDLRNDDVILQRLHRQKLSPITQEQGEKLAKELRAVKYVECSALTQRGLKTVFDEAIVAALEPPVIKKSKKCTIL
UniProt Q59PH5: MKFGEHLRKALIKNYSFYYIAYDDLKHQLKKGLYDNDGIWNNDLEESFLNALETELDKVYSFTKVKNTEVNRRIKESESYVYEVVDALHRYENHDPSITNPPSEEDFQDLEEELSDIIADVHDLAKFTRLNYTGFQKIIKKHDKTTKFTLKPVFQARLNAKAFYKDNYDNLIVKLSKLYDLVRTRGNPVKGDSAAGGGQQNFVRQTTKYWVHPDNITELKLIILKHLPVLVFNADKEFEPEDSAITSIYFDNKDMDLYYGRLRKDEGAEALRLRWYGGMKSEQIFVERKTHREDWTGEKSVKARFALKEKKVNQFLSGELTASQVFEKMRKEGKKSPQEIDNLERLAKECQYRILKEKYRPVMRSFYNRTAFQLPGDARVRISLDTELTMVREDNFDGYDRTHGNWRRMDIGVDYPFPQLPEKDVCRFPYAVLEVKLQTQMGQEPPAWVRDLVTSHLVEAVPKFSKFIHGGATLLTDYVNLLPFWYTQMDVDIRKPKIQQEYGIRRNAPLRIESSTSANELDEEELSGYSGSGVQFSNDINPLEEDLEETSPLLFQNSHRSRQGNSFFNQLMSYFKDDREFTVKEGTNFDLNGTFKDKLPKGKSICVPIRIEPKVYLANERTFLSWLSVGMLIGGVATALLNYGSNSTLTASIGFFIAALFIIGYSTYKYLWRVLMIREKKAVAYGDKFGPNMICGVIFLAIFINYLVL
UniProt A0A1D8PSJ6: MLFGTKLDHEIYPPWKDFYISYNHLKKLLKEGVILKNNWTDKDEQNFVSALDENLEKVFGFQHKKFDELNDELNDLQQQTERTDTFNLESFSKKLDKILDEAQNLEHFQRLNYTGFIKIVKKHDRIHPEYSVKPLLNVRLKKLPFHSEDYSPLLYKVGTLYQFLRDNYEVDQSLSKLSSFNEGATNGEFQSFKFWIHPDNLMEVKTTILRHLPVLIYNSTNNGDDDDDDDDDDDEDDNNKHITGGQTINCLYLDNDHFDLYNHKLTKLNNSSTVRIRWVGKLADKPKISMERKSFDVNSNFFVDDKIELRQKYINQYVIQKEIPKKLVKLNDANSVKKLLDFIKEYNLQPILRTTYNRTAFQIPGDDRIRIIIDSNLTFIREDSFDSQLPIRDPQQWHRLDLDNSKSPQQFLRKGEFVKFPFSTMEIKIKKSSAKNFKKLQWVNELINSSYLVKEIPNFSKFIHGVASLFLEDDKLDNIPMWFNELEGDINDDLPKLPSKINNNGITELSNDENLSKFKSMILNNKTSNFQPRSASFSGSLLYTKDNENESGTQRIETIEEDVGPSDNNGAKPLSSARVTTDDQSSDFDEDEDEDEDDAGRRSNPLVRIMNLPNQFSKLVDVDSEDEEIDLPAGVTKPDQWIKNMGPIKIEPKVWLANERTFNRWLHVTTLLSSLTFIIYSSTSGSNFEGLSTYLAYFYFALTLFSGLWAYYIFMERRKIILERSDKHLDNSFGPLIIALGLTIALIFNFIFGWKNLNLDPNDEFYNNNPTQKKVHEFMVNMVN

No constants are given. Whether binding was seen depends on the method and setting. In cells and extracts the contact can be indirect. These calls come from enrichment with a bait or labelling near it, and not all partners need be listed. Tags and fused reporters may be left off the sequences shown.

To fix the notation:
B1: Sep7/Shs1 (protein, UniProt Q59VX8 1-670)
chain: MSRFDYRNTSKNTSVVDPDHSSPIINYRKDAKKGIKFTFMVVGESGTGKTTFINSLLNKKVLNHRYEKLSPTVGDTKTLMFTSAKSVALPNTSILTKNEFNPRTINEEPGIALTETHIEIIDDDNQKLLLNIIDTPGFGENLNNELCFIEIENYLKQQFDLVLAEETRIKRNPRFVDTRVHVMLYFITPTGHGLREIDIQCMKRLSKYVNIIPVIGKADSFTLNELQHFKQQIRIDIQKFNVPTFQFDNSLNDYDEDEDYDLIQECKFLTNLQPFAVVTSEDVFEVRESTTSTKGNNDKPKIIRARKYPWGLVDINDTRYSDFPILKSVLLGSHLQDLKDLTHDFLYETYRTERLTKVTGNGQAFDDEENEDAEFHDTVEHQLNDSNRGVGGDDNNNNNNNNNNASTIPSMSNLAQLTTSTNEHDASHIDNNSITSTSSSIKKSTSMLIDDHPSSSPKLKNISSFTSSTSTVSLEGGEKEGGHHDRGANSTSTNNNNNNNAFKRLSIGPQRNQLRQISETVPYVLRHERILERQQKLEEMEQASARELANRAALLEKKAAQLKAKEKALRQLELNRQKQEESATSSLHRKDSDISGSVQSGGVDDGKSESTNNNNNNRNGYGYGHGHGHGQSHEYDNSEYHHDDSTPNYETSRLQKDETLTDLHSIVSNH
B2: Vac8 (protein, UniProt Q59MN0 1-585)
chain: MGACCSCLGNRGGDGSHTQLLLAENEREAISALLQYLENRSDVDFFSNGPLRALSTLVYSENIDLQRSAALAFAEITEKDVREVNRDVLEPILILLQSADSEVQRAACGALGNLAVNTENKILIVEMGGLEPLIRQMMSTNIEVQCNAVGCITNLATQDDNKSKIAKSGALIPLTKLAKSKDIRVQRNATGALLNMTHSGENRQELVNAGAVPVLVSLLSNEDADVQYYCTTALSNIAVDEVNRKKLASTEPKLVGQLVHLMDSPSPRVQCQATLALRNLASDSGYQVEIVRAGGLPHLVQLLTCNHQPLVLAAVACIRNISIHPLNEALIIEAGFLKPLVGLLDYTDSEEIQCHAVSTLRNLAASSEKNRTALLAAGAVDKCKELVLKVPLTVQSEISACFAILALADDLKPKLYESHIIDVLIPLTFSENGEVCGNSAAALANLCSRVSNEHKQYILNNWAQPNEGIYGFLIRFLESGSPTFEHIALWTILQLLESNNTEINALIKENETILAGIKNLSASQQQIQQSQIGQTTTTTTTNITNNNTNTNTNTNTTTSTSNEDQFEDPKVELFNLTQQILQILG
B3: Cdc3 (protein, UniProt P39826 1-416)
chain: MSTNIKIIKKVLNGYVGFANLPKQWHRKSIRRGFSLNIMAIGESGLGKATLINTLFNRDIITSQHDSDEFDEGEEEDVSVKIKSTQAEIEEDGVKLKVSVITAPGFGESINNVEAWKPIVDEINSRFDSYLEAESRINRTAVVDNRVHAFLYFIEPTGHSLRALDIALMKQVHEKVNLIPVIAKSDTLTDEEILEFKHRILADISHQGIKIFKPTDFEYDEEESANTRSIIDSFPFAVVGSTNEVQTPDGRLVRGRKYPWGVIEVDNENHNDFVKLRQLLVRNFLEELKEHTANVLYENYRTEKLKRMGIEQDNTVFREFDPAAKQEEERALHEAKLAKMEAEMKSVFQQKVSEKEKKLQRSEADLFARHKEMKDKLTKQIKLLEEKKAQLEKQKLLPQDPPAQPAPQKSRKGFLR
B4: Cdc11 (protein, UniProt G1UB61 1-402)
chain: MNYSTENVSSAALRKRKTLKKSINFSIMIIGESGSGRSTLINTLCGGNSIVPTSSTATQDPFTKKLTLRHENVELEDNEGHKISLNIIDTPNFANSINCDDDFKIIVDFIRHQFDEVLLEESRVKRNPRFKDGRIHVLIYMINPTGHGLSDIDVKFLQHVNNLVNIIPIISKADSLTPKELKLNKELILEDLNNYGINFYKFNEYDYEQDYIDEEIIEYNKYLNSLIPFAIIGANEYRSNPNGSEDEDDILKLRILNKDFKPIDIDNAEINDFTILKNVLLVTHLNEFKDITHDSIYENYRTEALSGKQFQYVNKDSAKQEISESDYLMKEEQIKLEEERLRKFEERVHQDLINKRKELLERENELKEIEKRLLAEGLKFDENGDVVKVHEEESSENEVKVI
B5: Sec18 (protein, UniProt P34732 1-794)
chain: MEKLGFHKVSNSPSSPSQPKITHNRPIPHPQSPPLPQRPLSEPLKKQLLVDNSPGNDVVIANCVAVNAQDFQNIPDRAPVILDGVFVYSIAKDDRVRPGTIGLAGNMRTWGKWSLGQPVNVENYNIFHNGQQQQYLGAIDLSIDFRAKARANSNPINHDELVALFLKNYENQILQPTQVIYMEYTGIYFQIRVNNVQIIDVNTKDQLPSFKDSDDINTKGILIKSTDVGFYPYEGSIINLTKPKTLKQRMFGGSTPHRTSRRKQIINPDFKLEDLGIGGLDAEFQDIFRRAFNSRILPPELAEKLDYKHCKGLLLYGPPGTGKTLIARKLSKMLNGKEPKIVNGPEMLSKYVGASEENIRNLFKDAEAEYKLKGEDSDLHVIIFDELDSVFKQRGSGKSDGTGVGDNVVNQLLSKMDGVDQLNNILVIGMTNRLDLIDTALLRPGRFEIQIEISLPDEKGRKDIFLIHTKKLTENGILSSDVNFDELSTLTKNFTGAEIEGLCNSAKSYAISRHTKKGALAQIDPESIAKMKITRDDFLLALNDIRPAFGTDEEDLSQQAQHGIIQFNQTIRNIFEKGQSIIDVVRSSETEHLRSILLYGPPGVGKTSIATTLALNSDFPFIKMLSAETLVGMGELRKIQEIDNVFRDVHKSPLNVLVIDKIENIINYNPIGPRFSNDILQVLMVYLTKKPPKGRRLLIIGTTSQYQVFKHMNLIDSFNDAIAVPPIKHIEEVGKVLDKLGFMNKSEREEILSQLSRYDINIGIKSLIDVLMVSKYSRDTVDEVVNNIVEKMSG
B6: Ykt6 (protein, UniProt Q5AI79 1-200)
chain: MKIYYIGILRSSGDKALELTSARDLSQFSFFERNGVSQFMTFFAETVSQRTQPGQRQSVEEGNYIGHTYTRSEGISGIIITDKDYPVRPAYTLINKILEEYLSLHPKSDWENIDKANETLQYGQLEAYLKKYQDPTQADSIMKVQQELDDTKVVLHKTIEGVLQRGEKLDSLVDKSEALSSSSRMFYKQAKKTNSCCVIM

The first test addresses T1, glutathione transferase (GST)-6×His-Rsr1^1–243 (C. albicans) (UniProt P52498).
T1 sequence: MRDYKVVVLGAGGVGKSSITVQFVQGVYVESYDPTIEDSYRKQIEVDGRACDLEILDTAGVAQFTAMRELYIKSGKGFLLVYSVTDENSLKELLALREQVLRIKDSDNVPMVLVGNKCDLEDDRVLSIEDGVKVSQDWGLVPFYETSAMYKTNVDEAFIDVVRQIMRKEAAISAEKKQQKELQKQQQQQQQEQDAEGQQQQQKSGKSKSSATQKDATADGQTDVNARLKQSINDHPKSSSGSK
The test can be described thus: affinity purification with mass spectrometry; 550 ug purified GST-Rsr1 1-243 mixed with 45 mg crude protein extract from C. albicans yeast or hyphae (septins: hyphae; other hits: lysate not told apart), overnight 4°C, captured on glutathione Sepharose, washed with PBS, eluted with 20 mM glutathione, LC-MS/MS; ratio against GST tag alone, n = 3; only the target purified.
“Cdc42 GTPase (from UniProt P0CY33 1-191)”: the binding result is “binds”.
Take Cdc12: the binding entry is given as “binds”.
Consider Cdc24, for which the binding entry is given as “binds”.
Still for that read-out and setting: the result for Vtc4 (from UniProt Q59PH5 1-709) reads “binds”; that for Vtc3 (from UniProt A0A1D8PSJ6 1-784), “binds”.

For another test, the target named is T1, glutathione transferase (GST)-6×His-Rsr1^1–243 (C. albicans). Described as above. The source holds these as a separate data set.
Consider B1, for which the binding result is recorded as “binds”.
On the same count and under the same terms, the result for B2 reads “binds”; that for B3, “binds”; that for B4, “binds”.
On the same count and under the same terms, the same measure for B5: “binds”; for B6: “binds”.
